Reference: patent US11987583B2, “Fused triazolo-pyrimidine compounds having useful pharmaceutical application” (PIKSci Inc., priority 2017, dated 2024)
pIC50: −log10 of the molar value.

Test system: multiple myeloma KMS12E, Non-hodgkin's lymphoma SU-DHL4, T-cell lymphoma Hut-78
Test: Cell viability (Presto Blue), panel of cancer cell lines
Assay type: cell-based
Settings: Homo sapiens; range over KMS12E, SU-DHL4, Hut-78 and normal PBMCs; 70 hours; read-out: IC50, viability of all cell types
Description: Three cancer cell lines, multiple myeloma KMS12E, Non-hodgkin's lymphoma SU-DHL4, T-cell lymphoma Hut-78, and normal human peripheral blood mononuclear cells derived from healthy individual were tested. The cells were plated in 384 well plates in RPMI medium supplemented with 10% fetal bovine serum. Cancer cells were plated at 1000 cells/well and normal cells at 10,000 cells per well in a total volume of 30 uL/well. Immediately after plating, the test compounds were added at […] concentrations: 10 uM-1 uM-0.01 uM-0.001 uM, in duplicate wells for each concentration. The cells were exposed to compounds for 70 hours at 37° C. in humidified incubator with 5% CO2. Cell viability was determined by Presto Blue reagent (Thermo Scientific/Invitrogen).

Q: CCc1cnn2c(NCc3ccc[n+]([O-])c3)cc(N3CCCC[C@H]3CCO)nc12 [Dinaciclib] was tested. Which pIC50 did it give?
A: The pIC50 was 7.82 to 8.00.
